In publication PMC12660843:
Where a chain is given by its changes, count along the chain named. Numbers in names are those of the source. Results are given in words; binding and its absence hold for the method and conditions named. Blank lines part the entries; values can stand above or below the binder they belong to.

How the values were obtained:
[1] = target: insulin; experiment: ELISA; polyreactivity ELISA: KLH 5 ug/mL, insulin 1 ug/mL, BSA 1% (w/v), streptavidin 10 ug/mL added to wells; IgG at 100 nM; both purified
[2] = target: keyhole limpet hemocyanin (keyhole limpet); experiment: as above

binding [1]: no binding (tested: IgG at 100 nM) | binding [2]: no binding (tested: IgG at 100 nM)
B1: hSC44.20.N32Y^L IgG (antibody, V domains shown)
VH: EVQLVESGGGLVQPGGSLRLSCTASGFSIDSYGFSWVRQAPGKGLEHIGYLTAGGRAFYASWAKSRSTITRNTNENTVTLKMNSLRAEDTAVYYCAKLGTGSRFAIWGQGTLVTVSS
VL: DIQLTQSPSSLSASVGDRVTITCRASQSVWRNKYVAWYQQKPGKAPKRLIYAIASLYSGVPSRFSGSGSGTDFTLTISSLQPEDFATYYCVGHYGSENDAYYAFGQGTKVEIK

binding [1]: no binding (tested: IgG at 100 nM) | binding [2]: no binding (tested: IgG at 100 nM)
B2: hSC44.20.N32F^L IgG (antibody, V domains shown)
VH: B1 VH
VL: B1 VL with Y34F
